# Hit rate of the full screen: of about 300,000 compounds, about 5,400 (1.8%) were called active. This list was built around the results that the source calls inconclusive (neither active nor inactive); the mix of calls is not that of the screen. Calls come from the whole dose curve; tested in HEK293 cells. Potencies of inconclusive entries are doubtful fits and often do not repeat. Where a structure was tested more than once in an assay, its records may differ in their call.
# Experiment: qHTS for inhibitors of binding or entry into cells for Marburg Virus
# Settings: Marburg virus pseudotyped entry inhibition, cell reporter; series mostly up to 37.8 µM
# Potency is the fitted concentration of half-maximal effect.
row,SMILES,Potency
1,Cn1c(=O)c2c(ncn2Cc2cccc(Cl)c2)n(C)c1=O,"inconclusive: 16.4 µM [inhibitor, single point]"
2,Cc1ccc(NC(=O)c2ccc([N+](=O)[O-])s2)cc1S(=O)(=O)N1CCOCC1,"inconclusive: 0.891 µM [inhibitor, full curve, poor fit]"
3,CCOc1ccc(S(=O)(=O)N(C)CC(=O)NCc2ccccn2)cc1Cl,"inconclusive: 3.16 µM [activator, full curve, poor fit]"
4,CC(C)c1ccc(NC(=O)c2ccc(NC(=O)CCS(=O)(=O)c3cccs3)cc2)cc1,"inconclusive: 4.47 µM [activator, full curve, poor fit]"
5,COc1ccc(CC2(CO)CCN(Cc3cccc4nccnc34)CC2)cc1,"inconclusive: 7.08 µM [inhibitor, partial curve, poor fit]"
6,Clc1ccc(-c2cc(CSc3cccc(Cl)c3)on2)cc1,inactive
7,O=C(CSCc1c(F)cccc1Cl)NCCSCc1ccco1,inactive
8,COc1ccccc1N1CCN(C(=O)CNC(=O)c2cn(-c3ccccc3OC)c(=O)c3ccccc23)CC1,"inconclusive: 35.5 µM [activator, single point]"
9,O=C1CCN(c2ccccc2)N1,inactive
10,Cc1csc(NC(=O)Cc2ccc(Cl)cc2)n1,inactive
11,CCCNC(=O)Cc1c(OC)ccc2cc(Br)ccc12,"inconclusive: 1.41 µM [inhibitor, full curve]"
12,Cc1ccc(C)c(-c2cc(C(=O)N/N=C/c3cccnc3)c3ccccc3n2)c1,inactive
13,O=C(Nc1cccc(C(F)(F)F)c1)c1cc(Br)cc2c1OCC2,inactive
14,O=C(O)CCc1ccc(-c2cccs2)n1NC(=O)c1ccc(O)cc1,inactive
15,Cc1ccc([C@H]2C[C@@H](n3cc(C4CC4)nn3)[C@H](O)CN2C(=O)c2cccs2)cc1,"inconclusive: 0.0011 µM [inhibitor, full curve, poor fit]"
16,CCN(CC)C(=O)Cn1c(=O)n(CCCCCC(=O)NCc2ccccc2Cl)c(=O)c2sccc21,"inconclusive: 35.5 µM [inhibitor, single point]"
17,Cn1nnnc1N=N/C(=N/Nc1ccccc1)c1ccccc1,active: 1 µM
18,CC1(c2ccc3c(c2)OCCO3)NC(=O)N(CC(=O)Nc2ccccc2F)C1=O (stereo not given),"inconclusive: 1.26 µM [inhibitor, single point]"
19,Cc1ccc2cccc(NC(=O)c3ccc(-c4cc(Cl)ccc4Cl)o3)c2n1,inactive
20,CC(C)(C)C(=O)N1CCN(c2ccc(NC(=O)c3ccc([N+](=O)[O-])o3)cc2)CC1,"inconclusive: 10 µM [inhibitor, partial curve, poor fit]"
21,COc1ccc2cc(C(=O)Nc3ccccc3)sc(=O)c2c1OC,inactive
22,O=C(c1cc2cc(Br)cc(Br)c2oc1=O)N1CCCC1,inactive
23,COCc1nc2c([nH]1)c(=O)n(C)c(=O)n2CC(C)C,"inconclusive: 0.0079 µM [inhibitor, full curve]"
24,Cc1ccccc1C(=O)Nc1nnc(-c2ccc(C(C)(C)C)cc2)s1,inactive
25,Cc1ccc2nc(-c3ccc(C)c(NC(=O)CSc4ccc(Cl)cc4)c3)oc2c1,"inconclusive: 5.62 µM [activator, single point]"

row,SMILES,Potency
1,CN1CCCN(CC(O)COCc2cccs2)CC1 (stereo not given),inactive
2,COc1ccc2oc(=N)c(C(=O)Nc3ccccc3)cc2c1,"inconclusive: 0.891 µM [activator, full curve, poor fit]"
3,COc1ccc(CC(=O)Nc2nc(-c3ccccc3)c(C(C)=O)s2)cc1OC,active: 11.2 µM
4,CSc1sc(C(=O)NC(=O)NCc2ccncc2)c(C)c1-c1ccon1,"inconclusive: 25.1 µM [inhibitor, single point]"
5,Cc1cc(NC(=O)C2CC2)ncc1NC(=O)c1ccccn1,inactive
6,Cc1ccc(N(C(=O)c2ccco2)C(C(=O)NC2CCCC2)c2cccnc2)cc1 (stereo not given),"inconclusive: 5.62 µM [inhibitor, single point]"
7,O=C(/C=C/c1ccc(OCc2ccccc2)c(OCc2ccccc2)c1)c1cccnc1,inactive
8,C=CCOc1ccc(/C=C/C(=O)OCc2csc(CC(=O)Nc3ccccc3C)n2)cc1,"inconclusive: 0.501 µM [activator, full curve, poor fit]"
9,COC(=O)c1cc(NC(=O)C2CC2)cc(C(=O)OC)c1,inactive
10,O=C(Nc1ccc(F)cc1)N1CCN(CCc2ccccc2)CC1,inactive
11,Nc1ccccc1-c1ccc([N+](=O)[O-])cc1,active: 5.62 µM
12,CCOC(=O)c1cc(NC(=O)CN2CCCC2)cc(C(=O)OCC)c1,"inconclusive: 7.94 µM [inhibitor, partial curve, poor fit]"
13,Cc1ccc(NC(=S)N2CCCCCC2)cc1,inactive
14,O=C(C[n+]1cccc2ccccc21)c1ccc([N+](=O)[O-])cc1,"inconclusive: 4.47 µM [inhibitor, single point]"
15,CCOc1ccc(N(CC(=O)NC2CCCCC2)C(=O)Cn2nnc(-c3ccc(C)o3)n2)cc1,inactive
16,COc1ccc(O)c(-c2cc(-c3cccc(Br)c3)n[nH]2)c1,"inconclusive: 15.8 µM [inhibitor, single point]"
17,COC(=O)C1C2CC(C(Br)C2Br)C1C(=O)O (stereo not given),inactive
18,COc1cc(C2c3c(-c4cc(Cl)c(C)cc4O)n[nH]c3C(=O)N2Cc2cccnc2)ccc1O (stereo not given),inactive
19,Cc1c(OC(C)C(=O)NC2CC(C)(C)NC(C)(C)C2)ccc2c3c(c(=O)oc12)CCC3 (stereo not given),"inconclusive: 25.1 µM [inhibitor, single point]"
20,CN(C)CCCOc1cccc(Cl)c1,"inconclusive: 0.112 µM [inhibitor, full curve, poor fit]"
21,CCCN1C(=O)/C(=C/C=C2\N(CC)c3ccccc3C2(C)C)SC1=S,"inconclusive: 2.82 µM [inhibitor, single point]"
22,Cc1cccc2c(C(=O)O)c3cccc(C)c3nc12,"inconclusive: 0.316 µM [activator, partial curve, poor fit]"
23,C/C(N)=C(/C#N)C(=O)COC(=O)c1ccc(O)cc1,"inconclusive: 35.5 µM [activator, single point]"
24,Cn1c(/C=C/c2ccccc2[N+](=O)[O-])nc2ccccc2c1=O,inactive
25,Cc1cc(NC(=O)CCN2C(=O)C3C4C=CC(C4)C3C2=O)ccc1Br (stereo not given),inactive

# Of the compounds above, three contain an NH in an aromatic ring:
row,SMILES,Potency
23,COCc1nc2c([nH]1)c(=O)n(C)c(=O)n2CC(C)C,"inconclusive: 0.0079 µM [inhibitor, full curve]"
16,COc1ccc(O)c(-c2cc(-c3cccc(Br)c3)n[nH]2)c1,"inconclusive: 15.8 µM [inhibitor, single point]"
18,COc1cc(C2c3c(-c4cc(Cl)c(C)cc4O)n[nH]c3C(=O)N2Cc2cccnc2)ccc1O (stereo not given),inactive

# Sorted by length of the SMILES (largest number first): three of the compounds above.
row,SMILES,Potency
14,O=C(C[n+]1cccc2ccccc21)c1ccc([N+](=O)[O-])cc1,"inconclusive: 4.47 µM [inhibitor, single point]"
21,COc1ccc2cc(C(=O)Nc3ccccc3)sc(=O)c2c1OC,inactive
17,COC(=O)C1C2CC(C(Br)C2Br)C1C(=O)O (stereo not given),inactive

# Additional compounds

row,SMILES,Potency
1,COc1cc(OC)c(-c2c3cc(O)c(=O)cc-3oc3cc(O)c(O)cc23)cc1OC,active: 4.61 µM
2,Nn1c(SCC(=O)NCCC2=CCCCC2)nnc1C(F)(F)F,"inconclusive: 6.51 µM [activator, single point]"
3,CCCCn1c(/C=C/c2ccco2)nc2ccccc21,inactive
4,COc1cc(/C=N/Nc2ccc(C(=O)O)cc2)ccc1O,"inconclusive: 13 µM [inhibitor, partial curve, poor fit]"
5,O=C(CCNC(=O)c1ccccc1Cl)NCC12CC3CC(CC(C3)C1)C2,"inconclusive: 6.31 µM [inhibitor, single point]"
6,O=C(NCc1cccnc1)c1cc(-c2cccs2)on1,inactive
7,COc1ccc(NC(=O)CSc2nnc(-c3cccnc3)s2)cc1,inactive
8,Cc1oc(C2CC2)cc1C(=O)O,"inconclusive: 1.16 µM [inhibitor, single point]"
9,COc1ccc(-n2c(SCC#N)nc3c(sc(=S)n3-c3ccccc3)c2=O)c(OC)c1,"inconclusive: 12.6 µM [inhibitor, single point]"
10,CCn1c(/C=C/N(C(C)=O)c2ccccc2)[n+](CCCS(=O)(=O)[O-])c2cc(Cl)c(Cl)cc21,inactive
11,CN(Cc1ccc(C(C)(C)C)cc1)C(=O)c1ccc2c(c1)OCO2,"inconclusive: 12.6 µM [inhibitor, partial curve, poor fit]"
12,N/C(Cc1ccc(Cl)cc1Cl)=N\OC(=O)c1cccs1,"inconclusive: 5.8 µM [inhibitor, partial curve, poor fit]"
13,C/C(=N\OCC(=O)Nc1ccc(OC(F)(F)F)cc1)c1ccc2c(c1)OCCO2,"inconclusive: 11.2 µM [activator, partial curve, poor fit]"
14,Cc1ccc(NP(=O)(Nc2ccc(C)cc2)Nc2ccc(C)cc2)cc1,"inconclusive: 35.5 µM [inhibitor, single point]"
15,CCc1ccccc1NC(=O)COc1cccc2ccc(C)nc12,"inconclusive: 35.5 µM [inhibitor, single point]"
16,CC(=O)c1c(C)[nH]c(C(=O)Nc2ccc(C)c(C)c2)c1C,inactive
17,COc1ccc(N(CC(=O)NCCc2ccccc2)C(=O)c2csnn2)cc1OC,"inconclusive: 5.01 µM [inhibitor, single point]"
18,CCc1cccc2c1NC(=O)C21N2CCCC2C(C(=O)c2ccc3ccccc3c2)C12C(=O)Nc1ccccc12 (stereo not given),active: 10 µM
19,COc1ccc2nc(-n3c(C)ccc3C)sc2c1,inactive
20,COC(=O)c1ccc(Oc2cc(C)nc(-n3nc(C)cc3C)n2)cc1,"inconclusive: 9.2 µM [inhibitor, partial curve, poor fit]"
21,CCOC(=O)C1CCN(C(=O)c2ccc(OCC)c(OCC)c2)CC1,inactive
22,O=C1C(=Cc2ccc(Br)o2)C(=O)c2ccccc21,"inconclusive: 1.26 µM [activator, single point]"
23,CSc1ccccc1OCc1cc(C(=O)NCCCc2ccccc2)no1,inactive
24,O=C(CC(c1ccccc1)c1cc(Br)ccc1O)NCC1(c2ccccc2)CCCC1 (stereo not given),"inconclusive: 17.8 µM [inhibitor, single point]"
25,Cc1ccccc1NC(=S)N1CCN(Cc2ccccc2)CC1,"inconclusive: 4.11 µM [activator, full curve]"

# Reference: PubChem BioAssay AID540276 (National Center for Advancing Translational Sciences (NCATS), 2011)
